# Test results reported in the supplement of paper PMC3334620.
# The full ranking holds about 33,000 sequences; the median of “E-score (-0.5 to 0.5)” is about -0.016, and the highest 2% start at about 0.3. The list shows a part of the results.
# Target: T1, Yer184c (UniProt P39961)
# T1 sequence: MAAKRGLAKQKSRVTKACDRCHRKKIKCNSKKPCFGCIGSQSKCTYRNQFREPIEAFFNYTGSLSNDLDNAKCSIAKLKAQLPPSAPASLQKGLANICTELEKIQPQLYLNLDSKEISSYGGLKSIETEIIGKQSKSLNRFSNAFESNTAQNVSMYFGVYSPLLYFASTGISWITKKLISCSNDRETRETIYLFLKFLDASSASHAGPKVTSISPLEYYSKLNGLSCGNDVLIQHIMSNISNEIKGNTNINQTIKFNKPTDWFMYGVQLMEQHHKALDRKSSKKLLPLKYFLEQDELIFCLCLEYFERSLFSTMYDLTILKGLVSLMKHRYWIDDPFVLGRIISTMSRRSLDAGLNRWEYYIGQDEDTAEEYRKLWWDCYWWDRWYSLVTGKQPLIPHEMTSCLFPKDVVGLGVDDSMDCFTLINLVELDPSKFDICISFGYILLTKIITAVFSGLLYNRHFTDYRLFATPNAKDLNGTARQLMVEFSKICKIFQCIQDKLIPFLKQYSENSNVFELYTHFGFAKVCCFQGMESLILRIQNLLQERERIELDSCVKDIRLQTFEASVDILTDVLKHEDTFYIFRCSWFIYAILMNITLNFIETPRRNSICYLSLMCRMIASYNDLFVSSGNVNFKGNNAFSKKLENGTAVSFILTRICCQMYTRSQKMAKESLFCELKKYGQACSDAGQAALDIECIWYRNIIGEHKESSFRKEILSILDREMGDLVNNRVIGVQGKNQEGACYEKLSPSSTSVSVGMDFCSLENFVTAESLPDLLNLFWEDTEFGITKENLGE
# Test: PBM E-score (8-mer binding enrichment) (E-score (-0.5 to 0.5)); higher = stronger / more preferred TF binding
# Settings: protein concentration: 100 nM; construct: GST-full length
# Summary of the method: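 GST-tagged yeast TFs (full-length or DNA-binding domain) were made by PURExpress in vitro transcription/translation and applied at about 100-200 nM to universal all-10-mer Agilent arrays. The arrays were made double-stranded by primer extension, on fresh or once-stripped slides. Bound protein was detected with fluorescent anti-GST, and scans were normalised with masliner. Each ungapped eight-base word, pooled with its reverse complement, received an E-score (modified Wilcoxon-Mann-Whitney statistic) from the Universal PBM Analysis Suite.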
row,Sequence,PBM E-score
1,TAGAACCA,-0.0841
2,GACGCCAC,-0.183
3,ATCGGACC,0.26
4,GTGCTGGA,-0.136
5,AGAGGTGC,-0.173
6,CTAGATGA,-0.159
7,CAGGCACA,-0.349
8,GAGGTTTA,0.114
9,GTAATAAC,0.00949
10,GCGACCGC,-0.0061
11,ACGCTAAC,-0.0394
12,ATGCCGGC,0.399
13,GCAAGATA,0.0733
14,CCTGTGGA,-0.268
15,CCTCAAAG,-0.14
16,AGCAGTGA,0.0499
17,AGGGTCGA,-0.0516
18,CCGTTTAG,0.16
19,AACTGTCT,-0.161
20,ATGGTGGA,-0.248
21,GCTGGTCA,-0.13
22,ATATGCAG,-0.171
23,AAGCGTTA,-0.22
24,ATTTAGAG,0.141
25,GCCCTTCC,-0.118

row,Sequence,PBM E-score
1,CAATTTGC,-0.0817
2,ACCTCAGT,-0.0185
3,AGTGAGTC,-0.189
4,GCTGGGAA,-0.0548
5,ATCTCTCA,0.0484
6,TAAGTGTA,-0.0488
7,CGCACCCC,-0.24
8,TTAGCCAA,-0.0891
9,TAACAGAA,0.236
10,CGTAACGA,-0.133
11,CGTTCGCA,-0.148
12,CCGGGTAG,0.147
13,ACTGCGGC,0.0262
14,CATTTTGA,-0.00114
15,CGACCCCG,-0.0259
16,CGCTTAAA,0.166
17,AGACTACG,-0.185
18,GAGGCTCA,-0.229
19,GCATACAC,-0.0811
20,AAATATAG,0.189
21,CCTTTATC,-0.0712
22,CTCCCAGC,-0.0231
23,TAAGGATA,0.0487
24,ATTATTCA,0.19
25,CACAACTA,0.223

# Single values from above.
# PBM E-score with CCGTTTAG is entered as 0.16
# PBM E-score with AAATATAG is entered as 0.189
# PBM E-score with ACCTCAGT is entered as -0.0185
# PBM E-score with ATGCCGGC is entered as 0.399
# PBM E-score with TTAGCCAA is entered as -0.0891
# PBM E-score with GCATACAC is entered as -0.0811
# PBM E-score with CAGGCACA is entered as -0.349

# Following part

row,Sequence,PBM E-score
1,ACGGCCAC,0.154
2,ATGGTTGA,-0.0763
3,CGCGTGGC,-0.0105
4,AATTCAGG,0.0718
5,CTCACAAA,0.164
6,GGTGCTAA,0.0611
7,AATCAATG,0.205
8,GTGTGAGA,-0.0444
9,AATCTACG,0.0211
10,CAGTGTAC,-0.206
11,TAACAATA,0.158
12,CGGTTGCC,0.235
13,CGGAATAG,0.253
14,TATCTTCA,0.0497
15,AATGTTAG,-0.0238
16,GCTCCTGA,0.00627
17,CACAAGCG,-0.247
18,GAGAGAAC,-0.00697
19,ACTGGAAT,-0.12
20,CGCAGGGC,0.0116
21,CATAATAC,0.00125
22,ATTCTAGC,0.0432
23,CAGATATG,-0.146
24,TCAAAGAA,0.00416
25,GTGGGTTA,-0.136

row,Sequence,PBM E-score
1,GCATTGGA,-0.0251
2,GCCATGCC,-0.133
3,GAAGGGTA,-0.0715
4,ATACTAAT,0.198
5,CCAACAAC,-0.0919
6,AAGCGCCG,0.373
7,GATCTTGA,0.0911
8,GGACGAAA,0.182
9,CCTCTACA,-0.108
10,AAAGTTGA,0.0216
11,ATGTTTGG,0.101
12,AGGCTCAC,-0.273
13,CTTCGGAA,0.394
14,GACCCCCC,-0.188
15,ATACTTCG,0.0948
16,AGCATTTC,0.087
17,CACTTAAA,0.111
18,TAAAAGCA,0.06
19,AGAATAAT,0.0179
20,AGGCCACC,-0.21
21,TCTTGGAA,0.121
22,AGCCGACA,0.0848
23,CTATCTCC,-0.113
24,CGGTGATC,-0.0365
25,TGAACGCA,0.154

row,Sequence,PBM E-score
1,AATCTTCG,0.18
2,AATCCTCC,-0.0292
3,ACGGCTGA,0.0623
4,CCTTCTTC,-0.19
5,AGCGACAC,-0.136
6,AACTGTCG,-0.00484
7,ATGTGGGC,-0.217
8,CATTACGC,0.0241
9,CACAGCTA,-0.145
10,ACGGACGG,0.169
11,CGATAGGA,-0.0673
12,AATCCCAC,-0.121
13,GCTCCAGA,-0.124
14,CCCCAGCC,-0.152
15,CGTCGCCC,-0.18
16,CAGGTGGG,-0.164
17,CAAGATAC,0.0473
18,ATAAGCAT,-0.0356
19,ATGTATAA,0.0425
20,ATGGAAGA,-0.0181
21,AAGCGATG,-0.245
22,GGAGATTA,0.00557
23,GAAAACAA,0.145
24,TGGGCCAA,-0.136
25,CAGGTGGA,-0.247

row,Sequence,PBM E-score
1,TGTAACAA,-0.0314
2,ATCAGAAA,0.0116
3,AACGCCCC,-0.0421
4,ATTCTCAG,0.134
5,AATAGGGC,-0.0514
6,ACTTTCAT,-0.0728
7,CTAGTGAG,-0.0187
8,CTTAACTA,-0.0358
9,ATCTTAAG,0.0169
10,CGTCTGAC,-0.128
11,ATCCCCGA,0.0326
12,CAATAAGA,0.176
13,ACGGCTCT,0.123
14,ATACTTCA,0.0618
15,ATCTTAAA,0.161
16,GAGCCCCC,-0.396
17,CCTTGCTA,-0.0394
18,CAAGCGGA,0.00133
19,AAAGGCAT,0.141
20,AGCTGAGC,-0.094
21,CTGCGATC,-0.0264
22,GGAGGCGA,-0.165
23,AATCCTTG,0.0874
24,TCGCCAAA,-0.0461
25,ATTTGCTG,0.0862

row,Sequence,PBM E-score
1,CCTCATTA,-0.0862
2,AATATCAC,0.11
3,AAGTCAAC,-0.0826
4,CAGCGACC,-0.0648
5,AGTTCTCG,-0.0118
6,AAAGTAAA,-0.00686
7,ATGAGTAA,0.0956
8,AGAAAGTG,-0.192
9,ATTGCATC,-0.0114
10,CTTTTCCC,0.0534
11,GGGGCACC,-0.221
12,ATACAATG,0.106
13,AATGGGAA,-0.226
14,AACATGGC,-0.317
15,CGGTGAAA,0.289
16,AAGAAGAT,0.237
17,GCTCCACA,-0.163
18,GAAAAAGC,0.225
19,ACGAAAAG,0.187
20,CAACTGAC,-0.106
21,ATCACAAC,0.0548
22,AGAGCCTA,-0.118
23,AGCGCCGA,0.357
24,TCTGCAAA,-0.00157
25,GTACATAC,0.0462

row,Sequence,PBM E-score
1,GCAATAGA,-0.0314
2,AACACGTT,-0.13
3,CTCCTTTA,-0.0659
4,AAGAAATA,0.163
5,ATGCTATA,0.00492
6,CCGTTCCA,0.0249
7,TCTGACAA,0.15
8,CGCAACTA,-0.00988
9,AGCTATTA,-0.0699
10,GAGCCTAA,-0.0836
11,GAAGGCGC,-0.184
12,ATAATTCA,0.208
13,CGTTAACG,-0.0399
14,TGCCGTAA,0.0109
15,CAAGAACC,0.156
16,AGAGTGTG,-0.16
17,ACAGTTAG,-0.134
18,ACACATAG,0.00943
19,GACTCGTA,-0.0872
20,CACTATGG,-0.176
21,CAATCCAG,0.0394
22,CTTTACGC,0.0875
23,AGCGTCAT,-0.0378
24,CAAAGCGG,0.0871
25,AAACTTCA,0.134

row,Sequence,PBM E-score
1,ACATAAGT,0.0642
2,GATTAAGC,0.215
3,CTCCCCGA,-0.0658
4,CAAATCTG,-0.11
5,AATTTAGC,0.0407
6,CACTACAA,0.0945
7,ACGCGACG,-0.123
8,AAAGTTCT,-0.0439
9,ACGGCGAT,0.188
10,AAAGACCG,-0.0408
11,GAAACTGA,0.0115
12,CCGACCTA,0.0204
13,ATCGAGAT,-0.0939
14,GCACTCCC,-0.124
15,CGCCTTGA,-0.135
16,TCGGTCAA,0.184
17,CGTCGCTA,-0.113
18,GCCACCGC,-0.115
19,ATCGGTTA,0.246
